Experimental data from PubChem BioAssay AID504467 (National Center for Advancing Translational Sciences (NCATS), 2011).
Out of some 330,000 compounds screened, about 7,700 (2.3%) were called active. Inconclusive means that the source gave no clear call. Such entries were picked first, then a sample of the others. The call rests on the fitted dose curve; in most records, active means well fitted inhibition curve with a large enough effect; inconclusive means small, poorly fitted or top-dose-only effect, or effect the other way; inactive means flat fitted curve, though single readings scatter. A potency beside an inconclusive call is a rough fit, not a confirmed value.

Assay: qHTS screen for small molecules that inhibit ELG1-dependent DNA repair in human embryonic kidney (HEK293T) cells expressing luciferase-tagged ELG1; further: nearly all actives have a fitted effect of over 55% in size
Details: HEK293T ELG1-luciferase reporter, luminescence, 16 h, DNA damage induced by 5-fluorouridine; activity change, negative = inhibition: at 46.1 µM (top of the series)
In short: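 Cells (2,000 per well) received 5-fluorouridine plus test compound or DMSO and were incubated 16 hr at 37 °C, 5% CO2. Luciferase activity was read by luminescence 30 min after ONE-Glo addition; signal suppression marked inhibition of damage-induced ELG1 function.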
On the % scale 0 is the no-effect control and ±100 the full control effect; potency means the concentration at half of the fitted maximal effect.

Structure (SMILES)	Potency	activity change, negative = inhibition
Cc1ccc(Nc2nc(N)nc(CSc3ncccn3)n2)cc1	inconclusive: 8.2 µM [activator, partial curve]	
CC1CCN(S(=O)(=O)c2cccc(C(=O)NCc3cccs3)c2)CC1		inactive: -8.51%
COc1ccc(-c2cc(C(F)(F)F)nc(-n3cc(Br)cn3)n2)cc1	inconclusive: 23.1 µM [inhibitor, partial curve]	
COCCn1c(SC(C)C(=O)Nc2ncc(Cl)cc2Cl)nc2ccccc21 (stereo unspecified)		inactive: 27.7%
Cc1cc(C(=O)NCCc2ccc(Cl)cc2)c(C)o1	inconclusive: 23.1 µM [activator, partial curve]	
O=C(NCC1CCCO1)c1cccc(F)c1 (stereo unspecified)		inactive: 0%
O=C(Nc1ccc(N2CCOCC2)cc1)c1cc(-n2cnnc2)ccc1Cl		inactive: 8.16%
O=C(NCCS(=O)(=O)N1CCN(c2ccc(F)cc2)CC1)C12CC3CC(CC(C3)C1)C2	inconclusive: 35.5 µM [inhibitor, single point]	
CC1CCN(C2=NC(=O)/C(=C/c3cccc(O)c3)S2)CC1	inconclusive: 18.3 µM [activator, single point]	
CC(C)N1CCc2c(sc(NC(=O)Cc3ccccc3)c2C(N)=O)C1		inactive: -5.92%
Nc1ncnc2c1ncn2C1O[C@H](CO)[C@@H](O)[C@@H]1O (stereo partly specified)		inactive: 3.49%
Cc1ccc(-c2nn3c(C)nnc3c3ccccc23)cc1S(=O)(=O)N1CCN(CCO)CC1	inconclusive: 25.9 µM [activator, partial curve]	
O=C1C2CC=CCC2C(=O)N1c1ccc(N2CCN(c3ccccn3)CC2)c([N+](=O)[O-])c1 (stereo unspecified)	inconclusive: 18.3 µM [inhibitor, single point]	
Cc1ccc(N=C/C(C(=O)C(F)(F)F)=C(\O)c2ccco2)cc1Cl	inconclusive: 4.61 µM [activator, full curve]	
O=C(O)CNc1nc(-c2ccccc2)nc2ccccc12		inactive: 20.3%
CC(C)(C)OC(=O)N1CCC(NC(=O)c2[nH]cnc2C(=O)Nc2cccc(Cl)c2)CC1	active: 18.3 µM	
COc1cc(NC(=O)c2cc(-c3cccnc3)nc3ccc(Br)cc23)cc(OC)c1		inactive: 1.83%
O=c1c(C=Nc2ccc(Cl)cc2)c[nH]n1-c1cccc(Cl)n1		inconclusive: 42.5% [activator]
CC1CCN(CC(=O)Nc2ccccc2-c2ccccc2)CC1		inactive: -3.05%
Fc1ccc2c(Cl)c(-c3nnc(-c4cccs4)o3)sc2c1	inconclusive: 0.731 µM [activator, full curve]	
CN(CC(=O)Nc1ccccc1Br)C(=O)CCCSc1nc2ccccc2[nH]1		inactive: 2.27%
CC(C)C[C@@H](CSc1ccc(Br)cc1)N1CCN(CC(C)C)CCC1=O	inconclusive: 23.1 µM [activator, partial curve]	
O=C1c2ccccc2C(=O)c2[nH]cnc21	inconclusive: 16.4 µM [inhibitor, single point]	
O=C(Nc1ccccc1)c1nc[nH]c1C(=O)NCCCCCCNC(=O)c1[nH]cnc1C(=O)Nc1ccccc1	inconclusive: 4.61 µM [inhibitor, single point]	
CCCCCOc1ccc(Cn2ccnc2)cc1[N+](=O)[O-]	inconclusive: 29.1 µM [activator, single point]	
CC12CCC(=O)N1C(C(=O)Nc1ccc(S(=O)(=O)N3CCCCC3)cc1)CS2 (stereo unspecified)		inactive: 4.73%

Whole records from above.
`CC(C)(C)OC(=O)N1CCC(NC(=O)c2[nH]cnc2C(=O)Nc2cccc(Cl)c2)CC1` is listed with Potency: active: 18.3 µM
`CC(C)C[C@@H](CSc1ccc(Br)cc1)N1CCN(CC(C)C)CCC1=O` is listed with Potency: inconclusive: 23.1 µM [activator, partial curve]

Additional compounds follow:

Structure (SMILES)	Potency	activity change, negative = inhibition
Cc1ccc2nc(N3CCCCC3)c(C=O)c(=O)n2c1	inconclusive: 32.6 µM [activator, single point]	
Cc1ccnc(NC(=O)c2ccc(Cl)s2)c1	inconclusive: 5.17 µM [activator, partial curve]	
O=C(c1cc(-c2ccc(O)cc2)on1)N1CCc2ccccc2C1	inconclusive: 10.3 µM [activator, partial curve]	
Cc1c(NC(=O)CSc2nc(N)cc(N)n2)c(=O)n(-c2ccccc2)n1C		inactive: 11.2%
COC(=O)c1ccc(CSc2nc(C(F)(F)F)c3c(c2C#N)CCC3)o1		inactive: -0.662%
COc1ccc(NC(=S)N2CCN(c3ccccn3)CC2)cc1		inactive: -11.6%
COc1ccc([C@H]2CC(=O)C=C(/C=C/c3ccc(Cl)cc3)C2)cc1	inconclusive: 14.6 µM [activator, partial curve]	
O=C(N/N=C/c1ccc[nH]1)c1ccc(O)cc1	inconclusive: 20.6 µM [activator, partial curve]	
CC(=O)c1ccc(NS(=O)(=O)c2cc(-c3cnc(C4CC4)o3)ccc2C)cc1		inactive: -11.8%
COc1cccc(N/N=C(\C#N)S(=O)(=O)C(C)(C)C)c1	inconclusive: 29.1 µM [inhibitor, single point]	
CC(=O)C1=C(C)NC(SCC(=O)c2ccc(Cl)cc2Cl)=C(C#N)C1c1ccco1 (stereo unspecified)	inconclusive: 23.1 µM [inhibitor, single point]	
CCc1ccc(Nc2n[n+](-c3ccccc3)c(-c3cccc(Cl)c3Cl)s2)cc1		inactive: -28.7%
CC(C(=O)N1CCc2ccccc21)N1CCc2ccccc2C1 (stereo unspecified)	inconclusive: 13 µM [inhibitor, partial curve]	
CN1N=C2c3ccccc3CCC2C1c1ccc(F)cc1 (stereo unspecified)	inconclusive: 7.3 µM [activator, partial curve]	
CCCCn1c(N)c(N(CCOC)C(=O)c2ccco2)c(=O)[nH]c1=O		inactive: 14.4%
COC(=O)c1ccc(COC(=O)c2ccc(SC)cc2OC)cc1	inconclusive: 16.4 µM [activator, partial curve]	
CCN1CCC2(CC1)N=C(c1ccc(F)cc1)C(=S)N2		inactive: -15.1%
CS(=O)(=O)Nc1cccc(S(=O)(=O)N2CCN(C(=O)c3ccccc3)CC2)c1		inactive: 1.12%
CCC(C)[C@@H](C(=O)N1CCNCC1)n1cc(CCCCN)nn1 (stereo partly specified)	inconclusive: 13 µM [activator, partial curve, poor fit]	
Cc1ccc(Cl)cc1NC(=O)COC(=O)c1ccc(COc2ccc3c(C)cc(=O)oc3c2)cc1	inconclusive: 13 µM [activator, single point]	
CCn1c(SCc2nc3ccccc3s2)nnc1-c1cccs1	inconclusive: 16.4 µM [activator, partial curve]	
CCN1CCN(c2ccc(NC(=O)COc3ccccc3Cl)cc2)CC1		inactive: -9.58%
O=C(/C=C/c1ccc(S(=O)(=O)N2CCOCC2)cc1)NCCc1ccc(C(F)(F)F)cc1	inconclusive: 29.1 µM [inhibitor, single point]	
CCCCN1C(=O)N(C)C2NC(=S)NC21 (stereo unspecified)	inconclusive: 29.1 µM [activator, single point]	
Cc1nc(NC(=O)CC(C)C)sc1-c1csc(Nc2ccc(Cl)cc2)n1	active: 23.1 µM	
O=C1NC(c2ccc(Br)cc2)Oc2ccccc21 (stereo unspecified)		inactive: -0.81%

Quoted at random: 2 entries already listed.
Structure (SMILES)	Potency	activity change, negative = inhibition
CC(=O)C1=C(C)NC(SCC(=O)c2ccc(Cl)cc2Cl)=C(C#N)C1c1ccco1 (stereo unspecified)	inconclusive: 23.1 µM [inhibitor, single point]	
O=C1NC(c2ccc(Br)cc2)Oc2ccccc21 (stereo unspecified)		inactive: -0.81%

Further results follow:

Structure (SMILES)	Potency	activity change, negative = inhibition
CCOC(=O)N1CCN(C(=O)CCSc2ccc(Cl)cc2)CC1	inconclusive: 20.6 µM [activator, single point]	
Cc1ccc(NC(=O)c2ccc(Cn3cc(Cl)cn3)o2)c(C)c1	inconclusive: 8.2 µM [inhibitor, partial curve, poor fit]	
Cc1c(/C=C/C(=O)c2ccc(O)cc2)cnn1C	inconclusive: 13 µM [activator, partial curve]	
CC(=O)NC(CC(=O)NNC(=O)COc1c(C)cccc1C)c1ccccc1 (stereo unspecified)		inactive: 4.43%
COc1ccc(NC(=O)c2ccccc2[N+](=O)[O-])cc1	inconclusive: 16.4 µM [activator, single point]	
CN(C)c1ccc(N=Cc2cccn2C)cc1	inconclusive: 9.2 µM [activator, partial curve]	
Cc1onc(-c2c(F)cccc2Cl)c1C(=O)c1ccccc1O		inactive: -0.981%
COc1ccccc1C(=O)Nc1c(C(=O)N(CCN(C)C)Cc2ccco2)oc2ccccc12		inactive: -6.27%
NS(=O)(=O)c1ccc(NC(=O)COC(=O)CC2Sc3ccccc3NC2=O)cc1 (stereo unspecified)	inconclusive: 29.1 µM [activator, single point]	
O=C(ONC1=NCCCCC1)c1ccc(Cl)cc1		inactive: 4.66%
COc1ccc(CNC(=O)Cc2csc(Nc3nc(=S)[nH]c4ccccc34)n2)cc1		inactive: -5.33%
Cc1ccc(Cn2c(=O)n(-c3ccccc3)c(=O)c3ccc(C(=O)NCc4ccco4)cc32)cc1		inactive: 5.98%
S=c1[nH]c2ccccc2n1CCOc1ccccc1		inactive: 18.6%
CCOC(=O)N1CCC(NC(=O)c2cc3c(=O)n(C)c4ccccc4c3n2C)CC1	inconclusive: 23.1 µM [inhibitor, single point]	
N/C(=N\OC(=O)c1ccc(OCC(F)(F)F)nc1)c1ccc(Cl)cc1	inconclusive: 29.1 µM [activator, single point]	
O=C(COC(=O)c1cc(S(=O)(=O)N2CCOCC2)ccc1O)Nc1cc(S(=O)(=O)N2CCCC2)ccc1Cl		inactive: -7.11%
CCn1nnnc1SCC(=O)N1c2ccccc2Sc2ccccc21		inactive: 3.36%
CCOc1ccc(S(=O)(=O)N(C)c2ccc(OCC(=O)Nc3nc4ccccc4s3)cc2)cc1	inconclusive: 6.51 µM [inhibitor, full curve]	
COc1ccc(CC(=O)NC(=S)NNC(=O)COc2c(C)cccc2C)cc1		inactive: -15.1%
Cc1cc(N)ccc1-c1cc2ccccc2oc1=O	inconclusive: 12.6 µM [activator, partial curve]	
Cc1ccc(C(=O)c2cc3ccccc3o2)cc1	inconclusive: 18.4 µM [activator, partial curve]	
CCCSc1nnc(CSc2nc3nc(C)cc(C)n3n2)o1	inconclusive: 32.6 µM [activator, single point]	
CCOC(=O)c1c(C)nc2cc(C)cc(C)n12	inconclusive: 18.3 µM [activator, single point]	
Cc1ccc(C(c2cc(Br)ccc2O)N2CCSCC2)cc1 (stereo unspecified)	inconclusive: 22.4 µM [activator, single point]	
